# Reference: PubChem BioAssay AID445 (National Center for Advancing Translational Sciences (NCATS), 2006)
# The other results are listed elsewhere or left out. The main result of the screen is listed elsewhere. These columns were measured beside it and carry no call. Most of these compounds were active or inconclusive in the main read-out, so they are no random draw. Words in brackets tell the shape of the fitted curve; partial curves, single points and poor fits give uncertain potencies.
# Assay: IkB Signaling
# Details: ABC-DLBCL IkBa-CBG/CBR dual luciferase ratio (green luciferase fused to IkBa over red control in OCI-Ly3 lymphoma cells), 4 h; measured here: control luc red channel unless noted
# Method in brief: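 Curves were fitted separately to fusion (green), unfused (red) and ratio luminescence, then classed by r2, magnitude and activity. Cells: OCI-Ly3, 4 h compound plus doxycycline at 37C; 10 uM MG-132 defined full response.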
row,SMILES,AC50
1,COc1ccc(OCC(O)CNc2ccc(Br)cc2)cc1 (stereo not drawn),"25.1 µM [falling, partial curve]"
2,O=C(CN1C(=O)COc2ccc(S(=O)(=O)N3CCCCC3)cc21)NCCc1ccc(Cl)cc1,"25.1 µM [falling, single point]"
3,COC(=O)COc1ccc(Oc2nc(NC(C)(C)C)nc(N3CCOCC3)n2)nn1,"0.2 µM [rising, full curve]"
4,CCOc1ccccc1CNC(=O)Cn1nc(C)c2nn(-c3ccc(Cl)cc3)c(C)c2c1=O,"39.8 µM [falling, single point]"
5,CCOc1ccc(-c2nnn(CC(=O)c3ccc4c(c3)OCCO4)n2)cc1,"31.6 µM [falling, single point]"
6,Cc1ccc2[nH]c(=O)c3cc(C(=O)N4CCN(c5ccccc5F)CC4)sc3c2c1,"1.58 µM [falling, partial curve]"
7,CCC(C)NC(=O)c1sc2nc(C)c(C(=O)Nc3ccc(C)cc3C)c(-c3ccc(Br)cc3)c2c1N (stereo not drawn),"5.01 µM [falling, full curve, poor fit]"
8,COc1ccc(-c2cnc(NCc3ccc(C)cc3)n2C)cc1,"10 µM [falling, partial curve, poor fit]"
9,COc1ccc(OC)c(-c2cc(C(=O)N3CCN(c4ncccn4)CC3)c3ccccc3n2)c1,"15.8 µM [falling, partial curve]"
10,COc1ccccc1CNC(=O)c1nn(-c2ccc(C)cc2)c(=O)c2c1c1ccccc1n2C,"3.16 µM [falling, partial curve]"
11,Cc1cnc(NC(=O)CCCSc2nc3ccccc3s2)s1,"12.6 µM [falling, partial curve]"
12,COc1ccccc1NC(=O)CSc1oc(-c2cccs2)nc1S(=O)(=O)c1ccc(C)cc1,"3.98 µM [falling, partial curve]"
13,COc1cccc(C(=O)Nc2nc(-c3ccc(S(=O)(=O)N4CCOCC4)cc3)cs2)c1,"3.16 µM [falling, full curve]"
14,COc1cc(NC(=O)c2ccc(Br)o2)ccc1NC(=O)c1ccccc1Cl,"15.8 µM [falling, partial curve]"
15,CCn1c(C(=O)N2CCCC(C(=O)NCCc3ccc(C)cc3)C2)cc2sccc21 (stereo not drawn),"15.8 µM [falling, partial curve]"
16,Cc1cc(Nc2cccc(F)c2)n2nc(-c3ccco3)nc2n1,"10 µM [falling, partial curve]"
17,O=C(Cn1c(=O)oc2cc(S(=O)(=O)NCc3ccccc3)ccc21)NCc1ccc(F)cc1,"15.8 µM [falling, partial curve]"
18,O=C(Cn1nc(C(F)(F)F)c2c1CCCC2)Nc1ccc(F)c(Cl)c1,"39.8 µM [rising, single point] [measured here: IkB-luc green channel]"
19,Cc1cccc(N(C)C(=O)C2CCN(S(=O)(=O)c3cccc4nonc34)CC2)c1,"31.6 µM [falling, partial curve]"
20,Cc1c(NC(=O)c2cc3ccccc3o2)cccc1-c1nc2ccccc2o1,"7.94 µM [falling, partial curve]"
21,CCCCc1nn2c(=O)cc(COC(=O)CNC(=O)c3ccccc3C)nc2s1,"1 µM [rising, full curve]"

row,SMILES,AC50
1,COc1ccc(OC)c(NC(=O)Cn2cc(C(=O)c3cccs3)c3ccccc32)c1,"10 µM [falling, partial curve]"
2,COc1ccc(CNC(=O)Cc2coc3ccc(C(C)C)cc23)cc1,"20 µM [falling, partial curve]"
3,CCOc1ccccc1CNC(=O)CSc1n[nH]c(-c2ccccc2Cl)n1,"39.8 µM [falling, partial curve]"
4,Cn1ccnc1Sc1nc2ccccc2nc1NS(=O)(=O)c1ccccc1,"1.26 µM [falling, full curve]"
5,CCOC(=O)c1ccc(Nc2nc(C(=O)OCC)nc3ccccc23)cc1,"25.1 µM [falling, partial curve]"
6,Cc1cc(Nc2cc(Cl)ccc2C)n2nc(Cc3ccccc3)nc2n1,"39.8 µM [falling, single point]"
7,CCCOc1ccccc1C1CC(=O)Nc2cc3c(cc21)OCCO3 (stereo not drawn),"10 µM [falling, partial curve]"
8,CCCNC(=O)c1c(N)n(-c2cccc(OC)c2)c2nc3ccccc3nc12,"15.8 µM [falling, partial curve]"
9,Cc1cc(OCCn2cc(C(=O)c3ccco3)c3ccccc32)ccc1Cl,"0.631 µM [falling, full curve]"
10,COc1ccccc1NC(=O)CSc1oc(-c2ccco2)nc1S(=O)(=O)c1ccc(Br)cc1,"15.8 µM [falling, partial curve]"
11,COc1ccc(-c2nnc(SCC(=O)Oc3cccc(C)c3C)o2)cc1,"15.8 µM [falling, single point]"
12,Cc1cccc(NC(=O)C2CCCN(c3nnc(-n4c(C)ccc4C)s3)C2)c1C (stereo not drawn),"25.1 µM [falling, single point]"
13,O=C(NCc1noc2ccccc12)Nc1ccc(F)cc1F,"15.8 µM [falling, single point]"
14,CCOC(=O)c1nc(Nc2ccccc2C)c2ccccc2n1,"6.31 µM [rising, partial curve]"
15,COc1ccccc1-n1c(CNC(=O)c2ccc(S(=O)(=O)N3CCOCC3)cc2)n[nH]c1=S,"0.316 µM [falling, full curve]"
16,COc1ccc2cc(CN(C(=O)Nc3ccccc3)C3CCCC3)c(=O)[nH]c2c1,"5.01 µM [falling, partial curve]"
17,COc1ccc(C)cc1NC(=O)CN1C(=O)COc2ccc(S(=O)(=O)N3CCCCCC3)cc21,"25.1 µM [falling, single point]"
18,CCCN(C(=O)Cn1c(=O)oc2cc(Cl)ccc21)c1ccc(C(C)C)cc1,"12.6 µM [falling, partial curve]"
19,CC(C)c1ccc(NC(=O)CN2C(=O)c3cccc4cccc2c34)cc1,"6.31 µM [rising, single point]"
20,CCc1ccc(S(=O)(=O)c2cn(C)c3cc(OC)c(OC)cc3c2=O)cc1,"15.8 µM [falling, partial curve]"
21,COc1ccccc1N1CCN(S(=O)(=O)c2cc(-c3cc(C)no3)ccc2C)CC1,"15.8 µM [falling, partial curve]"

# Reprinted at random: 2 entries already listed
row,SMILES,AC50
10,COc1ccccc1NC(=O)CSc1oc(-c2ccco2)nc1S(=O)(=O)c1ccc(Br)cc1,"15.8 µM [falling, partial curve]"
11,Cc1cnc(NC(=O)CCCSc2nc3ccccc3s2)s1,"12.6 µM [falling, partial curve]"

# More compounds follow.

row,SMILES,AC50
1,CCc1ccc2oc(C(=O)NCCc3ccc(OC)c(OC)c3)cc(=O)c2c1,"25.1 µM [falling, partial curve]"
2,COc1cccc(CN2C(=O)C3(SCC(=O)N3c3cc(C)cc(C)c3)c3ccccc32)c1 (stereo not drawn),"7.94 µM [falling, partial curve]"
3,Cc1ccc(C(C)C)c(OCC(=O)Nc2nc3c(s2)CCCC3)c1,"2.51 µM [falling, full curve]"
4,COc1ccc(S(=O)(=O)Nc2cc(-c3cn4cccc(C)c4n3)ccc2C)cc1C,"20 µM [falling, single point]"
5,Cc1ccc2nc(-c3c[nH]c4ccccc34)c(Nc3ccccc3)n2c1,"0.0126 µM [falling, full curve]"
6,Cc1coc2c1c(C)cc1oc(=O)c(CC(=O)NCc3ccc(Cl)cc3)c(C)c12,"0.398 µM [rising, full curve]"
7,Cc1ccc(C2(c3ccc(C)cc3)NC(=O)N(Cc3c(C)noc3C)C2=O)cc1,"31.6 µM [falling, single point]"
8,Cc1cc(O)c(C(C)(C)C)cc1Sc1cc(C(C)(C)C)c(O)cc1C,"12.6 µM [falling, partial curve]"
9,COc1ccccc1Oc1nc2c(C)cccn2c(=O)c1/C=C(\C#N)c1nc2ccccc2[nH]1,"0.02 µM [falling, full curve, poor fit]"
10,Cc1nn(CC(=O)NCc2cccc(F)c2)c(=O)c2c(C)n(-c3ccc(Cl)cc3)nc12,"31.6 µM [falling, partial curve]"
11,CS(=O)(=O)c1ccc2nc(NC(=O)c3ccco3)sc2c1,"10 µM [falling, partial curve]"
12,COc1ccc2nc(N(Cc3cccnc3)C(=O)c3ccco3)sc2c1,"10 µM [falling, single point]"
13,COc1ccc(N(C(=O)c2ccccc2C)S(=O)(=O)c2ccc(C)cc2)cc1,"10 µM [falling, partial curve, poor fit]"
14,Cc1ccc2c(c1)c1c(c(=O)n(-c3ccccc3)c(=O)n1CC(=O)NCCC1=CCCCC1)n2C,"2 µM [falling, full curve]"
15,CCOC(=O)C1=C(CN2CCN(c3cc(C)ccc3C)CC2)NC(=O)NC1c1ccccc1 (stereo not drawn),"39.8 µM [falling, single point]"
16,CCOC(=O)c1cc(-c2ccc(C)cc2)n(CC(=O)Nc2ccc(OC)c(Cl)c2)c1C,"20 µM [rising, partial curve]"
17,Cc1ccc(CCNC(=O)c2cc3sccc3n2Cc2ccc(Cl)cc2)cc1,"3.16 µM [falling, partial curve]"
18,CC1CCCCN1C(=O)CSc1nc2ccccc2nc1Cc1ccc(Cl)cc1 (stereo not drawn),"25.1 µM [falling, single point]"
19,CCOc1ccc(C(=O)N2CCN(Cc3cc(=O)n4nc(-c5cccc(OC)c5)sc4n3)CC2)cc1,"25.1 µM [falling, partial curve]"
20,Cc1cccc(NC(=O)c2ccc(F)c(S(=O)(=O)N(C)C3CCCCC3)c2)c1,"15.8 µM [falling, partial curve]"
21,COc1ccc(NC(=O)C(C)n2nc(C)c3c(C)n(-c4ccccc4)nc3c2=O)cc1Cl (stereo not drawn),"39.8 µM [falling, single point]"

# Entries shown so far that contain an aryl thioether with sulfur outside any ring:
row,SMILES,AC50
11,Cc1cnc(NC(=O)CCCSc2nc3ccccc3s2)s1,"12.6 µM [falling, partial curve]"
12,COc1ccccc1NC(=O)CSc1oc(-c2cccs2)nc1S(=O)(=O)c1ccc(C)cc1,"3.98 µM [falling, partial curve]"
3,CCOc1ccccc1CNC(=O)CSc1n[nH]c(-c2ccccc2Cl)n1,"39.8 µM [falling, partial curve]"
4,Cn1ccnc1Sc1nc2ccccc2nc1NS(=O)(=O)c1ccccc1,"1.26 µM [falling, full curve]"
10,COc1ccccc1NC(=O)CSc1oc(-c2ccco2)nc1S(=O)(=O)c1ccc(Br)cc1,"15.8 µM [falling, partial curve]"
11,COc1ccc(-c2nnc(SCC(=O)Oc3cccc(C)c3C)o2)cc1,"15.8 µM [falling, single point]"
8,Cc1cc(O)c(C(C)(C)C)cc1Sc1cc(C(C)(C)C)c(O)cc1C,"12.6 µM [falling, partial curve]"
18,CC1CCCCN1C(=O)CSc1nc2ccccc2nc1Cc1ccc(Cl)cc1 (stereo not drawn),"25.1 µM [falling, single point]"
